Source: the supplement of paper PMC12067093, “Discovery and optimisation of a covalent ligand for TRIM25 and its application to targeted protein ubiquitination” (Chemical Science, 2025)
Some of the results follow.

The chains behind the UniProt entries cited, without tags or fusion partners. Where a name states a change or a piece, a line headed by the entry shows the natural chain unless it says otherwise.
UniProt P08238, whole entry, looked up: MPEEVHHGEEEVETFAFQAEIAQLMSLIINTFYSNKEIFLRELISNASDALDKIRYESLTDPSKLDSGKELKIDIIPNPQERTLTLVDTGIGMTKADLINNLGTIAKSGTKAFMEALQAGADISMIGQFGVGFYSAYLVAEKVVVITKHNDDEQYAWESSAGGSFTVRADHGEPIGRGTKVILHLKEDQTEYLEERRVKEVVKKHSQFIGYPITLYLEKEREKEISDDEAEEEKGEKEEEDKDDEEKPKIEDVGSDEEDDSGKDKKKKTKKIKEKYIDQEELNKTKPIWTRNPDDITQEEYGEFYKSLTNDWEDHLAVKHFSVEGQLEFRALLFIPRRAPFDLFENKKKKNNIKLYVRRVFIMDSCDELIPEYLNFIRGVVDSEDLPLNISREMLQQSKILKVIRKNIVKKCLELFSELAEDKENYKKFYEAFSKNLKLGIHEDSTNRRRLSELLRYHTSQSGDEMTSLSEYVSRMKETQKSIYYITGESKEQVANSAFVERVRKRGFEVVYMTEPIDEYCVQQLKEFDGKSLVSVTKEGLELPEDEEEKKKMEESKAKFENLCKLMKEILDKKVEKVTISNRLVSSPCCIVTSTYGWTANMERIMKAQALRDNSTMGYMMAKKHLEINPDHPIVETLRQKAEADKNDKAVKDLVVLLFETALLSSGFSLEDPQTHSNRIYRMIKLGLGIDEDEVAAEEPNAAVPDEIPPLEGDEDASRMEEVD
UniProt Q8NBQ5: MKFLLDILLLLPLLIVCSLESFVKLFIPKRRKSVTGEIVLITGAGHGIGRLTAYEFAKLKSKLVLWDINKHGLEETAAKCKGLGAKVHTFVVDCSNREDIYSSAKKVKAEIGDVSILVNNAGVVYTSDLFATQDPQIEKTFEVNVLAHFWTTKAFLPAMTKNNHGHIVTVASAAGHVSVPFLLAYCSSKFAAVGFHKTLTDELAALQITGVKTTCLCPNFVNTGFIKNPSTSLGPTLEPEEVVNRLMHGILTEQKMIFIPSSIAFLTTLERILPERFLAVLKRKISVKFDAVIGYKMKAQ
UniProt P09651: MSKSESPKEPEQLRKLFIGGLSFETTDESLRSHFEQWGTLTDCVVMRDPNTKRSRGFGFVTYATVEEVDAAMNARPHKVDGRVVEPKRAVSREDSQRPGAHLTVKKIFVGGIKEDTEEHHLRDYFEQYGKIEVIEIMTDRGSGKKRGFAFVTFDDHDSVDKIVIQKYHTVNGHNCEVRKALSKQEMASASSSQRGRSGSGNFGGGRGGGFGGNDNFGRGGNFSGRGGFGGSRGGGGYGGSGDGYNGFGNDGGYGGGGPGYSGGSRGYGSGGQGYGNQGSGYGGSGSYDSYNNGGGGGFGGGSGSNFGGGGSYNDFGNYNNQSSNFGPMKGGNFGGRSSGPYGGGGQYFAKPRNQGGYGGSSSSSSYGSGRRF
UniProt O95757: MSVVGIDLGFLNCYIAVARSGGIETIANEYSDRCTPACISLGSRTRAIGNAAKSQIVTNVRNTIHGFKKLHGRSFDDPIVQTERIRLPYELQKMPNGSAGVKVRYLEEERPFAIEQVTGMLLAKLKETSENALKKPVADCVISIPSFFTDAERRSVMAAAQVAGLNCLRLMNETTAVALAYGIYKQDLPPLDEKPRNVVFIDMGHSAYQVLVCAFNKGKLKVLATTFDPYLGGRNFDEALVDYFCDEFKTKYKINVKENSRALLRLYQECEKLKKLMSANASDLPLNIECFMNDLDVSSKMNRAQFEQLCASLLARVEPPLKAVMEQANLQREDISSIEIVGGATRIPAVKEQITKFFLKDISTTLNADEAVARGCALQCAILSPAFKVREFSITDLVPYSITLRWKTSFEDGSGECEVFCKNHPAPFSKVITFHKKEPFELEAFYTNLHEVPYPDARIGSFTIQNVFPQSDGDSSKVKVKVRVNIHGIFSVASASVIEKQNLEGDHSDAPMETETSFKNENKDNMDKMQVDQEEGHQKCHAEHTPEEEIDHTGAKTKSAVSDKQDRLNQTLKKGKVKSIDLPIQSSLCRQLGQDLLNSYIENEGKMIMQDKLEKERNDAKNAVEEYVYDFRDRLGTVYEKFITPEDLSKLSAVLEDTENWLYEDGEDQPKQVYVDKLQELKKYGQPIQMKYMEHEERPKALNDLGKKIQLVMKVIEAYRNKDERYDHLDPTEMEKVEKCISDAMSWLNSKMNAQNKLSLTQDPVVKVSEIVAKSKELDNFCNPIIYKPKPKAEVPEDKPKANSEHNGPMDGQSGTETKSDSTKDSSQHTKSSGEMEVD
UniProt O60921: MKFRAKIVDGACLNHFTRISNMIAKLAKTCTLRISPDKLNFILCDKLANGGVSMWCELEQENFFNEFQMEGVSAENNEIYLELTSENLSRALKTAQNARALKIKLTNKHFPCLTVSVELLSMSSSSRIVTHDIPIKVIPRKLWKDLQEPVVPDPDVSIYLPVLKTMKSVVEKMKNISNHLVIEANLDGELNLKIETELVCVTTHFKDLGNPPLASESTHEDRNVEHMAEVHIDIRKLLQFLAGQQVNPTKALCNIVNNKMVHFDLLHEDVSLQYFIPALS
UniProt Q9NZL4: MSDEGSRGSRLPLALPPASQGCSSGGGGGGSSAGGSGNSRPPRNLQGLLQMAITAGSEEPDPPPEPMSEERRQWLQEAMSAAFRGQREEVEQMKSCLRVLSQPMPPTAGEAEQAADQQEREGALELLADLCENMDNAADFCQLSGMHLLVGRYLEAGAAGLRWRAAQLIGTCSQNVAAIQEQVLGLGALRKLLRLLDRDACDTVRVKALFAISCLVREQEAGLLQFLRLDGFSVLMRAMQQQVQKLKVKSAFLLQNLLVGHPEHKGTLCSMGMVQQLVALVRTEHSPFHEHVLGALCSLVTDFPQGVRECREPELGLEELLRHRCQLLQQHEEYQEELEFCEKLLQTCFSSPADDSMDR
UniProt P51991: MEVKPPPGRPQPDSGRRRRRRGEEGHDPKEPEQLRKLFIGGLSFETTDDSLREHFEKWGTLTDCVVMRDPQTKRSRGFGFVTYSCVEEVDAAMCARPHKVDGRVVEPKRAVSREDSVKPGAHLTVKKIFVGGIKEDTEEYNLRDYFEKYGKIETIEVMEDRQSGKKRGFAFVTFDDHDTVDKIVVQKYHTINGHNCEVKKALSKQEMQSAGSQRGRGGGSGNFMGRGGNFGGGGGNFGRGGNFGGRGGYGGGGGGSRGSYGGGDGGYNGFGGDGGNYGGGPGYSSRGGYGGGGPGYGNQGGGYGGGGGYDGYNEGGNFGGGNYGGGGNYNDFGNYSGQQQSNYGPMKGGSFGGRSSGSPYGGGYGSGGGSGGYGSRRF
UniProt Q00839, whole entry, looked up: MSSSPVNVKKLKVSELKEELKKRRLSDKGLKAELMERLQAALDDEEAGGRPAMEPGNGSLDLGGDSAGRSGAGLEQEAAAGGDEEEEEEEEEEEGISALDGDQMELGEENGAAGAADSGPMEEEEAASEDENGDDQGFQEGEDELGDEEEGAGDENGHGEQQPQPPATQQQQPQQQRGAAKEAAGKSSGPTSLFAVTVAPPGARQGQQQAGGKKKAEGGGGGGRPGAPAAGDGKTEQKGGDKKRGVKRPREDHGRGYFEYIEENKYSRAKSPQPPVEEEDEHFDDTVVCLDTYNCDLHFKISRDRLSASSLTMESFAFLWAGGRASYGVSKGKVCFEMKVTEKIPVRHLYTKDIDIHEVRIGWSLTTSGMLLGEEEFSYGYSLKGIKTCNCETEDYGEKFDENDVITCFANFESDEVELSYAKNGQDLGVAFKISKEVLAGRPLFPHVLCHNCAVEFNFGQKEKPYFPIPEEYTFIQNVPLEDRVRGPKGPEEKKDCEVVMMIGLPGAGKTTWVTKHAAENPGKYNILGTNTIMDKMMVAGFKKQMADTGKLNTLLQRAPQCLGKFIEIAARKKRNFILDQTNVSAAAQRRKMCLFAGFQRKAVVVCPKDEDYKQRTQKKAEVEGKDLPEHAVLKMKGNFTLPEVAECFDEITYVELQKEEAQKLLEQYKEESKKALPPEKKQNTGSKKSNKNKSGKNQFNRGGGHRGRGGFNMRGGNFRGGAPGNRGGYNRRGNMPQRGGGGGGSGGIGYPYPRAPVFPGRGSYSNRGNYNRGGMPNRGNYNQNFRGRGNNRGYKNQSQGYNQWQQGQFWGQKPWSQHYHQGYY
UniProt P34932: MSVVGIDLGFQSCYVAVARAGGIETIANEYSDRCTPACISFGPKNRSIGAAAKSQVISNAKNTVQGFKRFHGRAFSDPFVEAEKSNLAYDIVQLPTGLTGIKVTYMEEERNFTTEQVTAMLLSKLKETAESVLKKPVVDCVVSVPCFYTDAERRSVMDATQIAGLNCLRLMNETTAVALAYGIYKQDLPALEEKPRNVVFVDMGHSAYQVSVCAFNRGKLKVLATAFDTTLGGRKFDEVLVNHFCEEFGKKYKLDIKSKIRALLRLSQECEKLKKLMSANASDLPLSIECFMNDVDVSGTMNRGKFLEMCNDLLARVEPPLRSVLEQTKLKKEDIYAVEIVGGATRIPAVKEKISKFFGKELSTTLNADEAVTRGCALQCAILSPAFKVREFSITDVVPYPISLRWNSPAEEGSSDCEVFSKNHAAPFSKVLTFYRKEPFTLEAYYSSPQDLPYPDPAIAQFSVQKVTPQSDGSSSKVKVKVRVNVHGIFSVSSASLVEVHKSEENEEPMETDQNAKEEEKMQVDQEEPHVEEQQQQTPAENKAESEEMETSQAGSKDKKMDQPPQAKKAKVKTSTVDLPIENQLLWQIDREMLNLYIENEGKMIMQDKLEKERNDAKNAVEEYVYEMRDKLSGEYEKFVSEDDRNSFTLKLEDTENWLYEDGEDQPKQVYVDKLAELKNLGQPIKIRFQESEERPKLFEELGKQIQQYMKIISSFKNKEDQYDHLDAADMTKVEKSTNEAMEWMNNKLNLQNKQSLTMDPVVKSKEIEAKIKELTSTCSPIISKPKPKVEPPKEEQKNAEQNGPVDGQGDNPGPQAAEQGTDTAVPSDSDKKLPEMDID
UniProt Q5SSJ5: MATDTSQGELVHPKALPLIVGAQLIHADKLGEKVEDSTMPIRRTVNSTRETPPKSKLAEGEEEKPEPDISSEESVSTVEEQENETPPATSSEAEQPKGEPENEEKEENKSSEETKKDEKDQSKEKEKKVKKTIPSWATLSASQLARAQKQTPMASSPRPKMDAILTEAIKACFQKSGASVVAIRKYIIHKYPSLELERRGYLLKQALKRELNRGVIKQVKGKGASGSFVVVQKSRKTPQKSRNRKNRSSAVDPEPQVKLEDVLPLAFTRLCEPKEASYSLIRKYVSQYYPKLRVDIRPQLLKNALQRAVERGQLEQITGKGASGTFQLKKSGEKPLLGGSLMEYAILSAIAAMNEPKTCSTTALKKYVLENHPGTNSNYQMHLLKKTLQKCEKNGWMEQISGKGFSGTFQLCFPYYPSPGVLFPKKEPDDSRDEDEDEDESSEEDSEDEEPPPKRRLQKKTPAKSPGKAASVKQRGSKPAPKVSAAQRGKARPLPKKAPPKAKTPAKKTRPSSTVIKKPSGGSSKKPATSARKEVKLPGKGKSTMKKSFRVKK
UniProt P14866: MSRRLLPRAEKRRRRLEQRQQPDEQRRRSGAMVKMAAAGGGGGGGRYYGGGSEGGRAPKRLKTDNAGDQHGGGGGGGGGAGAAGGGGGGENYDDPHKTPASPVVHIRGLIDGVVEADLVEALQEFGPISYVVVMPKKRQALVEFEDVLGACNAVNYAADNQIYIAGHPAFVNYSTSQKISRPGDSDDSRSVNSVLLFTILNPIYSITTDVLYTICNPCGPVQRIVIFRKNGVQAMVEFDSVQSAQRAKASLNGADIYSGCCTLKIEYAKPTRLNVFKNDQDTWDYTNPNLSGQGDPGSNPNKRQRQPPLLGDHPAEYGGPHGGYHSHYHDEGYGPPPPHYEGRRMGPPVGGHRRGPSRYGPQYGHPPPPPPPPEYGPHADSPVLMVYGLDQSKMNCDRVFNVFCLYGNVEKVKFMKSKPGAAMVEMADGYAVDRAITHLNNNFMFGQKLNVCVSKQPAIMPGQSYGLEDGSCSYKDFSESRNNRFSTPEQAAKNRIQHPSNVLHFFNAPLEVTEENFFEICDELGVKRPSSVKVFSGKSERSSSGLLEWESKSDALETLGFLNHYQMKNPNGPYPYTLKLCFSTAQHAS
UniProt Q00613: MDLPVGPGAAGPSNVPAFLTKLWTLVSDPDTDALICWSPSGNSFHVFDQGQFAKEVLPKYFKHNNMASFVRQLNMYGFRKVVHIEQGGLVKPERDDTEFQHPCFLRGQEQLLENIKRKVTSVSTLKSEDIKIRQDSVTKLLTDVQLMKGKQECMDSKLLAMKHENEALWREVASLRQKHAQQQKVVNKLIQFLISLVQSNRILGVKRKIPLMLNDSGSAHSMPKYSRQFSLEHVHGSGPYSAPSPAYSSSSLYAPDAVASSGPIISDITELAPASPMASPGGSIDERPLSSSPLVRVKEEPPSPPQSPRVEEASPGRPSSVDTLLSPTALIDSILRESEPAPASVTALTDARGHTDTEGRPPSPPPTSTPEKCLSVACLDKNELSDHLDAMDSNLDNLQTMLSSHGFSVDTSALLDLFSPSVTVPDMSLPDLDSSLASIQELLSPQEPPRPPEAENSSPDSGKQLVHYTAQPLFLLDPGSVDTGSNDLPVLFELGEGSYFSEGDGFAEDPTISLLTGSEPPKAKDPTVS

The targets below were run with Cc1cc(ccc1-c1ccccc1)C(=O)N1CCCN(CC1)C(=O)CCl [compound 10] (assay: probe-labelled cysteine peptide fold change vs DMSO (competition) (log2 fold change); higher = less target engagement (more negative = stronger competition)). Settings: 10 µM; THP-1; incubation time: 4 h.
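Also: competitive profiling in live THP-1 cells: cysteine peptides tagged with an iodoacetamide desthiobiotin (IA-DTB) probe, intensity after compound treatment relative to DMSO-treated cells.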

Row | Target | probe-labelled cysteine peptide fold change
1 | HSP90AB1_P08238_521_RGFEVVYMTEPIDEYCVQQLK (UniProt P08238) | -0.0663
2 | HSD17B11_Q8NBQ5_94_VHTFVVDCSNREDIYSSAK (UniProt Q8NBQ5) | -0.0284
3 | HNRNPA1_P09651_43_SHFEQWGTLTDCVVMRDPNTKR (UniProt P09651) | -0.036
4 | HSPA4L_O95757_34+38_CTPACISLGSR (UniProt O95757) | 0.153
5 | HUS1_O60921_253_ALCNIVNNK (UniProt O60921) | -0.05
6 | HNRNPA0_Q13151_7_MENSQLCK (UniProt Q13151) | 0.0576
7 | HSPBP1_Q9NZL4_269_GTLCSMGMVQQLVALVR (UniProt Q9NZL4) | -0.0734
8 | HSPA4L_O95757_140_KPVADCVISIPSFFTDAERR (UniProt O95757) | 0.0631
9 | HTT_P42858_202_CRPYLVNLLPCLTR (UniProt P42858) | -0.139
10 | HSPA4L_O95757_140_KPVADCVISIPSFFTDAER (UniProt O95757) | 0.132
11 | HNRNPA3_P51991_85+94_GFGFVTYSCVEEVDAAMCAR (UniProt P51991) | 0.36
12 | HNRNPA3_P51991_85_GFGFVTYSCVEEVDAAMCARPHK (UniProt P51991) | -0.0643
13 | HSPH1_Q92598_290_LMSSNSTDLPLNIECFMNDK (UniProt Q92598) | -0.144
14 | HSD17B7_P56937_158_ELEPLLCHSDNPSQLIWTSSR (UniProt P56937) | 0.191
15 | HNRNPU_Q00839_497_KDCEVVMMIGLPGAGK (UniProt Q00839) | 0.0615
16 | HNRNPM_P52272_676_FNECGHVLYADIK (UniProt P52272) | 0.12
17 | HTATIP2_Q9BUP3_90_NVNQEVVDFEKLDDYASAFQGHDVGFCCLGTTR (UniProt Q9BUP3) | 0.0119
18 | HSPA4_P34932_140+146_KPVVDCVVSVPCFYTDAER (UniProt P34932) | 0.18

Row | Target | probe-labelled cysteine peptide fold change
19 | HNRNPU_Q00839_497_DCEVVMMIGLPGAGK (UniProt Q00839) | 0.0826
20 | HNRNPU_Q00839_607_KAVVVCPK (UniProt Q00839) | -0.015
21 | HNRNPK_P61978_185_LFQECCPHSTDR (UniProt P61978) | -0.0248
22 | HP1BP3_Q5SSJ5_359_TCSTTALKK (UniProt Q5SSJ5) | -0.166
23 | HUS1_O60921_12_IVDGACLNHFTR (UniProt O60921) | 0.0355
24 | HSPD1_P10809_237_CEFQDAYVLLSEKK (UniProt P10809) | -0.239
25 | HNRNPL_P14866_581_LCFSTAQHAS (UniProt P14866) | 0.0791
26 | HSDL2_Q6YN16_218_TAIHTAAMDMLGGPGIESQCR (UniProt Q6YN16) | -0.174
27 | HNRNPA0_Q13151_49_CFGFVTYSNVEEADAAMAASPHAVDGNTVELKR (UniProt Q13151) | 0.122
28 | HSPA4_P34932_245_FDEVLVNHFCEEFGK (UniProt P34932) | -0.0483
29 | HSPA4_P34932_779_ELTSTCSPIISK (UniProt P34932) | 0.23
30 | HSPA4_P34932_146_KPVVDCVVSVPCFYTDAERR (UniProt P34932) | 0.153
31 | HSPA4_P34932_270_LSQECEK (UniProt P34932) | -0.0609
32 | HNRNPA3_P51991_64_WGTLTDCVVMRDPQTKR (UniProt P51991) | -0.273
33 | HNRNPU_Q00839_450+453_PLFPHVLCHNCAVEFNFGQK (UniProt Q00839) | -0.0224
34 | HSPA4L_O95757_245_NFDEALVDYFCDEFK (UniProt O95757) | 0.026
35 | HPCAL1_P37235_38_DCPTGHLTVDEFK (UniProt P37235) | 0.079
36 | HSF1_Q00613_373+378_CLSVACLDK (UniProt Q00613) | -0.649
